Measurements reported in PubChem BioAssay AID504808 (Drosophila RNAi Screening Center, 2011)

Assay: 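Genes whose loss lifts activity of an E2F-responsive reporter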 (primary screen)
System: Drosophila S2 cells
Reagent: long dsRNA against Drosophila genes
Detection: 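Dual luciferase plate measurements; E2F-specific signal taken as firefly over Renilla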
Direction: E2F firefly: higher = more E2F reporter activity; Renilla normaliser: higher = more normaliser reporter signal
Hit rule: 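a knock-down counted as active when the firefly/Renilla E2F signal rose above 50%, a threshold chosen arbitrarily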
In all, the deposit lists about 21,000 reagents; shown is a random part of those that have a named target and a result. Over the whole deposit, 18 (0.084%) got an active call. 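Raw counts without plate normalisation, one of two replicates; the ratio scores behind the calls were not deposited.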 The record does not give: the amount of reagent, the time to read-out.

Muc96D (Mucin 96D) [DRSC13709]
- E2F firefly, rep 1: 84718
- Renilla normaliser, rep 1: 2408
- call: inactive

Rpt1 (Regulatory particle triple-A ATPase 1) [DRSC07542]
- E2F firefly, rep 1: 2218
- Renilla normaliser, rep 1: 225
- call: inactive

CG15431 [DRSC00446]
- E2F firefly, rep 1: 1.42e5
- Renilla normaliser, rep 1: 5447
- call: inactive

CG33298 [DRSC02210]
- E2F firefly, rep 1: 1.50e5
- Renilla normaliser, rep 1: 5153
- call: inactive

CG33298 [DRSC02672]
- E2F firefly, rep 1: 87912
- Renilla normaliser, rep 1: 3357
- call: inactive

Pcif1 (Phosphorylated CTD-interacting factor 1) [DRSC11655]
- E2F firefly, rep 1: 74007
- Renilla normaliser, rep 1: 4308
- call: inactive

Continued (2 carried over from the part before).
CG33298 [DRSC02672]
- E2F firefly, rep 1: 87912
- Renilla normaliser, rep 1: 3357
- call: inactive

Pcif1 (Phosphorylated CTD-interacting factor 1) [DRSC11655]
- E2F firefly, rep 1: 74007
- Renilla normaliser, rep 1: 4308
- call: inactive

CG3323 [DRSC18303]
- E2F firefly, rep 1: 1.09e5
- Renilla normaliser, rep 1: 5195
- call: inactive

CG13838 [DRSC14688]
- E2F firefly, rep 1: 1.20e5
- Renilla normaliser, rep 1: 5599
- call: inactive

Ddrgk1 (DDRGK domain containing 1) [DRSC15897]
- E2F firefly, rep 1: 66783
- Renilla normaliser, rep 1: 2950
- call: inactive

CG5065 [DRSC06912]
- E2F firefly, rep 1: 1.40e5
- Renilla normaliser, rep 1: 6240
- call: inactive

Opbp (Optix-binding protein) [DRSC04966]
- E2F firefly, rep 1: 99873
- Renilla normaliser, rep 1: 4868
- call: inactive

dysc (dyschronic) [DRSC10273]
- E2F firefly, rep 1: 1.09e5
- Renilla normaliser, rep 1: 5561
- call: inactive

dysc (dyschronic) [DRSC11040]
- E2F firefly, rep 1: 1.05e5
- Renilla normaliser, rep 1: 5553
- call: inactive

DNAlig3 (DNA ligase 3) [DRSC15201]
- E2F firefly, rep 1: 1.48e5
- Renilla normaliser, rep 1: 6703
- call: inactive

CG32572 [DRSC19525]
- E2F firefly, rep 1: 1.55e5
- Renilla normaliser, rep 1: 5829
- call: inactive

CG32572 [DRSC19526]
- E2F firefly, rep 1: 1.53e5
- Renilla normaliser, rep 1: 6365
- call: inactive

Syn2 (Syntrophin-like 2) [DRSC06902]
- E2F firefly, rep 1: 1.52e5
- Renilla normaliser, rep 1: 5001
- call: inactive

l(3)72Dr (lethal (3) 72Dr) [DRSC10478]
- E2F firefly, rep 1: 1.56e5
- Renilla normaliser, rep 1: 7956
- call: inactive

naz (nazgul) [DRSC14790]
- E2F firefly, rep 1: 1.43e5
- Renilla normaliser, rep 1: 8535
- call: inactive

naz (nazgul) [DRSC16199]
- E2F firefly, rep 1: 1.49e5
- Renilla normaliser, rep 1: 7821
- call: inactive
